Test results taken from PubChem BioAssay AID248 (DTP/NCI, 2004).
The list does not hold the whole screen: it gathers tests that were run many times, whatever their T/C, doses with no T/C, and many T/C values between a quarter and a half above the control. Other doses and runs of a compound stand elsewhere. T/C: endpoint of the treated group in % of that of the vehicle group. Some doses have a count of surviving animals in place of a T/C: the source files T/C as zero there, which appears to mark a toxic dose or a test without result, not a measured value. Some doses without a T/C left all or most animals alive at the check, yet need not have been tolerated: the source hardly ever lists a survival T/C far under the control, and the zero likely stands for such cases as well. Counts of survivors are from the toxicity check (mostly the fifth day) where no day follows; animals may have died later. Schedules are NCI's codes, read here as Q, the interval in days (D) or hours (H), X, the number of doses. Some doses were run more than once; their values stand side by side, smallest first. Some schedule codes hold Z or #, which are not explained here. Where survival is the endpoint, this PubChem deposit counts one and a half times the control or more as active, and values a quarter to a half above the control carry no call in these data; other NCI protocols may use other cut-offs. Signs of the kind (2×) say how often a value occurs here. Some T/C values are followed by the survivors on the day toxicity was checked, most often the fifth; without a count, all were alive then.

System: L1210 leukemia ip in BDF1 mice, survival T/C
Assay: NCI In Vivo Anticancer Drug Screen. Data for tumor model L1210 Leukemia (intraperitoneal) in B6D2F1 (BDF1) mice
Details: T/C endpoint: mean survival time, higher T/C = longer survival
[1] = dose: 400.0 mg/kg/injection, schedule: Q01DX001 (ip), vehicle: carboxymethylcellulose (CMC)
[2] = dose: 100.0 mg/kg/injection, schedule: Q01DX009 (ip), vehicle: Klucel (hydroxypropylcellulose) (HPC)
[3] = dose: 100.0 mg/kg/injection, schedule: Q04DX003 (ip), vehicle: saline with Tween-80
[4] = dose: 200.0 mg/kg/injection, schedule: Q04DX003 (ip), vehicle: saline with Tween-80
[5] = dose: 400.0 mg/kg/injection, schedule: Q04DX003 (ip), vehicle: saline with Tween-80
[6] = dose: 100.0 mg/kg/injection, schedule: Q04DX003 (ip), vehicle: saline
[7] = dose: 200.0 mg/kg/injection, schedule: Q04DX003 (ip), vehicle: saline
[8] = dose: 400.0 mg/kg/injection, schedule: Q04DX003 (ip), vehicle: saline
[9] = dose: 400.0 mg/kg/injection, schedule: Q01DX009 (ip), vehicle: Klucel (hydroxypropylcellulose) (HPC)
[10] = dose: 200.0 mg/kg/injection, schedule: Q01DX009 (ip), vehicle: Klucel (hydroxypropylcellulose) (HPC)
[11] = dose: 100.0 mg/kg/injection, schedule: Q01DX009 (ip), vehicle: saline with Tween-80
[12] = dose: 400.0 mg/kg/injection, schedule: Q01DX009 (ip), vehicle: saline
[13] = dose: 400.0 mg/kg/injection, schedule: Q04DX002 (ip), vehicle: other
[14] = dose: 400.0 mg/kg/injection, schedule: Q04DX002 (ip), vehicle: saline with Tween-80
[15] = dose: 400.0 mg/kg/injection, schedule: Q04DX002 (ip), vehicle: saline

Structure (SMILES): Cc1cc2nc3c(=O)[nH]c(=O)nc-3n(CCN(CCCl)CCCl)c2cc1C
- T/C (dose: 100.0 mg/kg/injection, schedule: Q01DX001 (ip), vehicle: carboxymethylcellulose (CMC)): 133 % of control
- T/C (dose: 176.0 mg/kg/injection, schedule: Q01DX001 (ip), vehicle: carboxymethylcellulose (CMC)): 143 % of control
- T/C (dose: 200.0 mg/kg/injection, schedule: Q01DX001 (ip), vehicle: carboxymethylcellulose (CMC)): 138 % of control
- survivor count (dose: 200.0 mg/kg/injection, schedule: Q01DX015 (ip), vehicle: carboxymethylcellulose (CMC)): 5 of 6
- T/C (dose: 268.0 mg/kg/injection, schedule: Q01DX001 (ip), vehicle: carboxymethylcellulose (CMC)): 138 % of control [5 of 6 alive]
- T/C [1]: 147 % of control

Structure (SMILES): CC(C)(C)c1ccc(SSc2ccc(C(C)(C)C)cc2)cc1
- survivor count [2]: 0 of 6

Structure (SMILES): CC1(C)CC(OP(=O)(CCl)OC2CC(C)(C)N(O)C(C)(C)C2)CC(C)(C)N1O
- survivor count (dose: 400.0 mg/kg/injection, schedule: Q04DX002 (ip), vehicle: water): 0 of 3

Structure (SMILES): N#Cc1ccc[n+](CCCl)c1
- survivor count (dose: 10.0 mg/kg/injection, schedule: Q01DX Z (ip), vehicle: saline): 0 of 6
- survivor count (dose: 100.0 mg/kg/injection, schedule: Q01DX Z (ip), vehicle: saline): 6 of 6
- survivor count (dose: 300.0 mg/kg/injection, schedule: Q01DX Z (ip), vehicle: saline): 0 of 6

Structure (SMILES): Cc1nonc1-c1nc(SCC(=O)NN)n[nH]1
- survivor count (dose: 100.0 mg/kg/injection, schedule: Q04DX002 (ip), vehicle: Klucel (hydroxypropylcellulose) (HPC)): 1 of 3

Structure (SMILES): N#Cc1ncc(Cl)cc1[N+](=O)[O-]
- survivor count [3]: 3 of 6
- survivor count [4]: 3 of 6
- survivor count [5]: 2 of 6

Structure (SMILES): Cc1cc(C)c(C(=O)C=O)c(C)c1
- survivor count (dose: 400.0 mg/kg/injection, schedule: Q04DX003 (ip), vehicle: Klucel (hydroxypropylcellulose) (HPC)): 6 of 6

Structure (SMILES): CCc1nc(NN)nc(CC)c1-c1ccccc1O
- survivor count (dose: 400.0 mg/kg/injection, schedule: Q04DX002 (ip), vehicle: Klucel (hydroxypropylcellulose) (HPC)): 1 of 3

Structure (SMILES): CC(C)Oc1ccc2ccccc2c1
- survivor count [6]: 6 of 6
- survivor count [7]: 6 of 6
- survivor count [8]: 6 of 6

Structure (SMILES): CN(Cc1ccccc1)C(=O)/C=C/c1ccccc1
- survivor count [9]: 1 of 6

Structure (SMILES): COC1=C(OC)C(=O)c2ccccc2C1=O
- survivor count [2]: 1 of 6
- survivor count [10]: 0 of 6
- survivor count [9]: 0 of 6

Structure (SMILES): Cc1cc(C)c(NC(=O)c2cc(C(=O)O)c(C(=O)Nc3c(C)cc(C)cc3C)cc2C(=O)O)c(C)c1
- T/C [11]: 93, 94, 100 % of control
- survivor count [11]: 3 of 3
- T/C (dose: 200.0 mg/kg/injection, schedule: Q01DX009 (ip), vehicle: saline with Tween-80): 87, 91 (2×), 107 % of control

Structure (SMILES): O=C1CCC(=O)C12CCNCC2
- survivor count [12]: 3 of 6

Structure (SMILES): NC(=O)OCCc1c2ccccc2nc2ccccc12
- survivor count (dose: 100.0 mg/kg/injection, schedule: Q04DX002 (ip), vehicle: other): 3 of 3
- survivor count [13]: 3 of 3

Structure (SMILES): O=C(NCCCl)Nc1c2ccccc2nc2ccccc12
- survivor count [9]: 0 of 6

Structure (SMILES): CCCCCCCCCCCCCC(=O)OC1C(CO)OC2C1Oc1nc(=N)ccn12 (stereo unspecified)
- T/C (dose: 12.5 mg/kg/injection, schedule: Q01DX009 (ip), vehicle: other): 130 % of control

Structure (SMILES): CCCCC(=O)N/N=C(\C)[C@]1(O)Cc2c(O)c3c(c(O)c2[C@@H](OC2CC(N)C(O)C(C)O2)C1)C(=O)c1c(OC)cccc1C3=O (stereo partly specified)
- survivor count [6]: 6 of 6
- survivor count [7]: 4 of 6
- survivor count [8]: 0 of 6

Structure (SMILES): CCOC(=O)c1nc2c(OC)nn(O)cc-2c1[N+](=O)[O-]
- survivor count (dose: 50.0 mg/kg/injection, schedule: Q04DX002 (ip), vehicle: saline with Tween-80): 3 of 3

Structure (SMILES): CCCCCCCCCCCCCCn1cnc2c(N)ncnc21
- survivor count (dose: 200.0 mg/kg/injection, schedule: Q01DX005 (ip), vehicle: other): 2 of 6

Structure (SMILES): Cc1ccc(S(=O)(=O)OC[C@H]2CC=CC[C@H]2COS(=O)(=O)c2ccc(C)cc2)cc1
- survivor count (dose: 400.0 mg/kg/injection, schedule: Q01DX009 (ip), vehicle: DMSO): 6 of 6
- survivor count [5]: 6 of 6

Structure (SMILES): CC(C)CP(=O)(CC(C)C)CC(C)C
- survivor count (dose: 12.5 mg/kg/injection, schedule: Q04DX003 (ip), vehicle: saline with Tween-80): 6 of 6
- survivor count (dose: 25.0 mg/kg/injection, schedule: Q04DX003 (ip), vehicle: saline with Tween-80): 1 of 6 and 5 of 6
- survivor count (dose: 50.0 mg/kg/injection, schedule: Q04DX003 (ip), vehicle: saline with Tween-80): 0 of 6
- survivor count [3]: 0 of 6
- survivor count [4]: 0 of 6
- survivor count [5]: 0 of 6

Structure (SMILES): CN=C(N)c1ccc(NC(=O)/C=C\c2ccc(C(=O)Nc3ccc(C(N)=NC)cc3)cc2)cc1
- T/C (dose: 15.0 mg/kg/injection, schedule: Q01DX Z (ip), vehicle: saline): 129 and 147 % of control
- T/C (dose: 30.0 mg/kg/injection, schedule: Q01DX Z (ip), vehicle: saline): 149 % of control [5 of 6 alive]
- T/C (dose: 240.0 mg/kg/injection, schedule: Q01DX Z (ip), vehicle: saline): 134 % of control

Structure (SMILES): CCCCCP(=O)(CCCC)CCCCC
- survivor count [10]: 0 of 3

Structure (SMILES): CC1N(C)CCC1(C)CN1c2ccccc2Sc2ccccc21 (stereo unspecified)
- survivor count [8]: 3 of 6

Structure (SMILES): O=C1C=CC(=O)c2c1ccc1c2[nH]c2ccccc21
- survivor count [14]: 0 of 3

Structure (SMILES): C=CCCCCCCCCC(=O)NC(C)C(C)(C)C (stereo unspecified)
- survivor count [5]: 6 of 6

Structure (SMILES): CN(C)CC1(C)CCc2c(ccc3ccccc23)C1O (stereo unspecified)
- survivor count (dose: 200.0 mg/kg/injection, schedule: Q01DX001 (ip), vehicle: Klucel (hydroxypropylcellulose) (HPC)): 1 of 6
- survivor count (dose: 400.0 mg/kg/injection, schedule: Q01DX001 (ip), vehicle: Klucel (hydroxypropylcellulose) (HPC)): 0 of 6

Structure (SMILES): CCCCOC(=O)C1=C(C(=O)OCCCC)CCCC1
- survivor count (dose: 400.0 mg/kg/injection, schedule: Q01DX009 (ip), vehicle: saline with Tween-80): 0 of 6

Structure (SMILES): Cc1cccc[c]1[Sb](=[O])([OH])[OH]
- survivor count (dose: 100.0 mg/kg/injection, schedule: Q01DX001 (ip), vehicle: saline): 1 of 4
- survivor count (dose: 200.0 mg/kg/injection, schedule: Q01DX001 (ip), vehicle: saline): 1 of 4
- survivor count (dose: 400.0 mg/kg/injection, schedule: Q01DX001 (ip), vehicle: saline): 1 of 4

Structure (SMILES): CSc1ncc(C(=O)O)c(=O)[nH]1
- survivor count [10]: 6 of 6

Structure (SMILES): CN(C)CC(C)(C)C(=O)c1ccc(F)cc1
- survivor count (dose: 100.0 mg/kg/injection, schedule: Q04DX002 (ip), vehicle: saline): 0 of 3 and 3 of 3
- survivor count (dose: 200.0 mg/kg/injection, schedule: Q04DX002 (ip), vehicle: saline): 0 of 3 and 3 of 3
- survivor count [15]: 0 of 3 and 3 of 3

Structure (SMILES): CCCCCCCCCCCCCCCCCC
- survivor count [13]: 3 of 3

Structure (SMILES): COC1Nc2cc3ccccc3cc2-c2ccccc21 (stereo unspecified)
- survivor count [1]: 6 of 6

Structure (SMILES): C[CH2][Ge]1([CH2]C)[CH2]CC2(C[CH2]1)NC(=O)N(CCCN(C)C)C2=O
- survivor count [15]: 0 of 3

Structure (SMILES): O=C(COc1ccc(Cl)cc1)Nc1ccc[n+](Cc2ccc(S(=O)(=O)F)cc2)c1
- survivor count [9]: 6 of 6

Structure (SMILES): Cc1cc2c(C)c3cc(C)c(C)c(C)c3cc2c(C)c1C
- survivor count (dose: 50.0 mg/kg/injection, schedule: Q01DX005 (ip), vehicle: water): 1 of 6
- survivor count (dose: 200.0 mg/kg/injection, schedule: Q01DX005 (ip), vehicle: water): 3 of 6

Structure (SMILES): CC12CCC3C(CCC4C(C)(C(=O)O)CCCC34C)(CC1=O)C2 (stereo unspecified)
- survivor count (dose: 400.0 mg/kg/injection, schedule: Q01DX001 (ip), vehicle: saline with Tween-80): 3 of 3

Structure (SMILES): CCCC=C(CCCC)CCCC
- survivor count [14]: 1 of 3

Structure (SMILES): CCCC(CCC)=NCCN=C(CCC)CCC
- survivor count [12]: 3 of 6
